Reference: PubChem BioAssay AID720703 (Peter MacCallum Cancer Centre, 2013)
Screen: 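Find kinases that boost or dampen angiotensin II-triggered EGFR transactivation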 (primary screen). System: immortalised, SV40-transformed mammary epithelial cells from human, with stable expression of tagged AT1R. Reagents: siRNA pool against human genes, 40 nM siRNA pool per well. Timing: 72 h from transfection to lysis and read-out. Conditions: angiotensin II stimulation (dose and duration not given); EGFR inhibitor AG1478 also listed. Detection: 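ERK1/2 phosphorylation corrected for confluency, given as a robust z-score, mean over two replicate plates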. Direction: phospho-ERK z-score: higher = more ERK phosphorylation after angiotensin II, relative to plate. Active means: 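Pools were ordered by robust z-score and 50 top-ranked pools, whether they raised or lowered the signal, were chosen for secondary testing; no numeric threshold was reported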. Meaning of the calls: active = picked for secondary screen; inactive = not picked.
Here is an unselected part of 714 deposited reagents. Over the whole deposit, 50 (7%) were called active. 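Chosen pools sit at both extremes, so both low and high scores count as candidates; some pools appear more than once.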 No sequences are given here.

gene symbol | phospho-ERK z-score, replicate mean | call
PIK3R1 | 0.59 | inactive
DTYMK | 1.48 | inactive
PRKACG | 0.28 | inactive
PDXK | -0.43 | inactive
NEK6 | 0.76 | inactive
PLK1 | 2.15 | inactive
TNK1 | 0.26 | inactive
PIK3C2A | 1.68 | inactive
EFNA5 | -0.28 | inactive
GUCY2EP | 0.58 | inactive
MAP4K4 | 0.66 | inactive
HIPK1 | -0.63 | inactive
PANK3 | 0.64 | inactive
PIKFYVE | 4.65 | active
MLKL | 0.43 | inactive
PIM3 | -0.94 | inactive
CHUK | 0.73 | inactive
CSNK1D | -0.08 | inactive
LMTK3 | 0.61 | inactive
PKLR | -0.82 | inactive

6 entries already listed, arranged by “phospho-ERK z-score, replicate mean”, low to high:
gene symbol | phospho-ERK z-score, replicate mean | call
PDXK | -0.43 | inactive
TNK1 | 0.26 | inactive
PRKACG | 0.28 | inactive
NEK6 | 0.76 | inactive
DTYMK | 1.48 | inactive
PLK1 | 2.15 | inactive

The list goes on.
gene symbol | phospho-ERK z-score, replicate mean | call
TRIO | -1.73 | active
MAP3K10 | 0.54 | inactive
ULK3 | 0.25 | inactive
ABL1 | 0.36 | inactive
PNCK | -0.23 | inactive
LATS1 | -0.3 | inactive
MYLK2 | -0.46 | inactive
PRKG2 | -0.33 | inactive
EPHA3 | 1.75 | inactive
PIK3CG | 0.82 | inactive
SKAP1 | -0.38 | inactive
ELP1 | -0.42 | inactive
CSNK2A2 | -0.17 | inactive
SIK2 | 1.03 | inactive
STK10 | -0.54 | inactive
AK1 | -0.04 | inactive
ITPKC | 0.13 | inactive
PEAK1 | 1.48 | inactive
CKB | 0.27 | inactive
AAK1 | 0.51 | inactive
MARK1 | 0.11 | inactive
MAP3K11 | -1.04 | inactive
PRKY | -1.4 | inactive
MAP3K15 | 0.72 | inactive
LYN | -0.7 | inactive
